The values below are quoted from earlier work in patent US7825092B2, “Dendroaspis natriuretic peptide for treatment of cancer” (University of South Florida, priority 2006, dated 2010).

For this series the following is noted: healthy humans, endogenous level; cited from earlier work.
For the molecule `CC[C@H](C)[C@@H]1NC(=O)[C@H](CCCNC(=N)N)NC(=O)[C@H](CC(=O)O)NC(=O)[C@H](CCSC)NC(=O)[C@H](CCCNC(=N)N)NC(=O)CNC(=O)CNC(=O)[C@H](Cc2ccccc2)NC(=O)[C@@H](NC(=O)[C@H](CO)NC(=O)[C@H](CO)NC(=O)[C@H](CCCNC(=N)N)NC(=O)[C@H](CCCNC(=N)N)NC(=O)[C@H](CC(C)C)NC(=O)[C@@H](N)CO)CSSC[C@@H](C(=O)N[C@@H](CC(N)=O)C(=O)N[C@@H](CO)C(=O)N[C@@H](Cc2ccccc2)C(=O)N[C@@H](CCCNC(=N)N)C(=O)N[C@@H](Cc2ccc(O)cc2)C(=O)O)NC(=O)CNC(=O)[C@H](CC(C)C)NC(=O)CNC(=O)[C@H](CO)NC(=O)[C@H](CCC(N)=O)NC(=O)[C@H](C)NC(=O)CNC1=O` [ANP, atrial natriuretic peptide], the circulating concentration is 63 ± 2 pg/mL.
With “long acting natriuretic peptide (NPMYNAVSNADLMDFKNLLDHLEEKMPLED; Long-acting natriuretic peptide; UniProt P01160 26-55, looked up, fragment) [LANP, cardiac hormone, first 30 amino acids of the 126 a.a. atrial natriuretic peptide prohormone]”, the circulating concentration is 1528 ± 158 pg/mL.
Turning to kaliuretic peptide, the circulating concentration is 213 ± 42 pg/mL.
Turning to “vessel dilator (EVSPAQRDGGALGRGPWDSSDRSALLKSKLRALLTAP; Vessel dilator; UniProt P01160 86-122, looked up, fragment) [cardiac hormone, a.a; 31-67 of the 126 a.a. atrial natriuretic peptide prohormone]”, the circulating concentration was 1595 ± 157 pg/mL.
